Results from one PubChem assay

Data taken from PubChem BioAssay AID1224904, deposited by Broad Institute (2016).

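Control-channel Italica luciferase signal in doxycycline-induced 293T-iDUX4 cells, given as percent activity after a 24-hour treatment.
The test concentration is not given here.
Percent change in the Italica control signal; more negative values mean stronger inhibition, which points to nonspecific, tet-on or cytotoxic effects.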

Values are in %.
Common to all entries: measured here: Italica tet-on control reporter.
Part of the compounds only, not a random draw; the main read-out is not listed here.

| SMILES | activity change (%) |
|---|---|
| `O=C(C[C@@H]1C[C@H]2c3cc(NC(=O)Nc4ccc(C(F)(F)F)cc4)ccc3O[C@H]2[C@H](CO)O1)NCC1CC1` | -5.885 |
| `COc1ccc2c3c(n(C)c2c1)[C@H](CO)N(C(=O)Nc1ccc(F)cc1)CC31CN(Cc2cccc(F)c2)C1` | -51.46 |
| `COc1ccccc1NC(=O)N1CC(=O)N2[C@@H](CO)[C@@H](c3ccc(C#CC(C)C)cc3)[C@@H]2C1` | -10.67 |
| `COc1cccc(S(=O)(=O)Nc2ccc3c(c2)[C@@H]2C[C@H](CC(=O)N[C@@H](C)c4ccccc4)O[C@@H](CO)[C@@H]2O3)c1` | -13.67 |
| `CCS(=O)(=O)N1CC2(C1)CN(S(=O)(=O)c1ccccc1)[C@H](CO)c1c2c2ccc(OC)cc2n1C` | -7.553 |
| `COc1ccc2c3c([nH]c2c1)[C@H](CO)N(C(=O)Nc1cccc(F)c1)CC31CN(S(=O)(=O)c2ccccc2)C1` | -37.78 |
| `C[C@@H]1CN([C@H](C)CO)C(=O)c2c(c3ccccc3n2C)-c2ccccc2CO[C@H]1CN(C)Cc1ccc(F)cc1` | -3.429 |
| `CCCNC(=O)N1CC2(CN(S(=O)(=O)c3ccc(OC)cc3)C2)c2c(n(C)c3cc(OC)ccc23)[C@@H]1CO` | -40.77 |
| `COc1cc(CN2CC3(CCN(C)CC3)c3c([nH]c4cc(OC)ccc34)[C@@H]2CO)cc(OC)c1` | -12.2 |
| `Cc1ccc(S(=O)(=O)N2CC[C@@H]3[C@H](CO)Nc4ccc(-c5ccccc5F)cc4[C@@H]32)cc1` | -35.03 |
| `COc1ccccc1-c1ccc2c(c1)[C@H]1[C@H](CCN1S(=O)(=O)c1ccccc1F)[C@@H](CO)N2` | -58.46 |
| `OC[C@H]1[C@@H](c2ccc(-c3ccc(F)cc3)cc2)[C@@H]2CN(Cc3ccncc3)CCCCN12` | -14.13 |
| `O=C(C[C@@H]1CC[C@@H](NC(=O)Nc2ccc(C(F)(F)F)cc2)[C@H](CO)O1)NCc1cccc(F)c1` | -10.11 |
| `COc1ccc(-c2ccc3c(c2)[C@@H]2[C@@H](CCN2C(=O)Nc2ccccc2OC)[C@@H](CO)N3C)cc1` | -81.72 |
| `C[C@H](NC(=O)C[C@H]1C[C@H]2c3cc(NS(=O)(=O)c4ccc(F)cc4)ccc3O[C@H]2[C@H](CO)O1)c1ccccc1` | -24.4 |
| `COc1ccc(-c2ccc(C3[C@@H]4CN(S(=O)(=O)c5ccccc5C)C[C@H]3N4)cc2)cc1` (stereo partly specified) | -14.83 |
| `COc1ccc2c3c(n(C)c2c1)[C@H](CO)N(C(=O)Nc1ccc(F)cc1)CC31CN(C(=O)c2cccnc2)C1` | -23.45 |
| `CO[C@@H]1CN(C)C(=O)c2cc(NS(=O)(=O)c3cccc(F)c3)ccc2OC[C@@H](C)N(Cc2cc(F)ccc2F)C[C@@H]1C` | -2.396 |
| `OC[C@@H]1[C@@H](c2ccccc2)C2(CN(Cc3ccccc3F)C2)N1Cc1ccccc1F` | -25.99 |
| `N#C[C@@H]1[C@H](c2ccccc2-c2ccccc2)[C@H](CO)N1C(=O)NC1CCCC1` | -15.38 |
| `C[C@H](NC(=O)C[C@H]1CC[C@H]2[C@@H](COC[C@H](O)CN2C(=O)Nc2cc(Cl)cc(Cl)c2)O1)c1ccccc1` | -23.13 |
| `CCCNC(=O)N1CC2(CCN(C(=O)C3CCCCC3)CC2)c2c([nH]c3cc(OC)ccc23)[C@H]1CO` | -12.69 |
| `O=C(C[C@@H]1CC[C@H]2[C@@H](COC[C@H](O)CN2C(=O)c2ccccc2F)O1)NCc1ccc(Cl)c(Cl)c1` | -17.16 |
| `C[C@H](CO)N1C[C@H](C)[C@H](CN(C)Cc2ccc(C(=O)Nc3ccccc3N)cc2)OCc2cn(nn2)CCCC1=O` | -6.44 |
| `COc1ccc2c3c(n(C)c2c1)[C@H](CO)N(Cc1ccc(F)cc1)CC31CCN(CC2CC2)CC1` | -26.24 |
| `C[C@H]1CN([C@@H](C)CO)C(=O)c2c(c3ccccc3n2C)-c2ccccc2CO[C@@H]1CN(C)Cc1ccc2c(c1)OCCN2C` | -10.53 |
| `COc1ccc2c3c([nH]c2c1)[C@H](CO)N(C)CC31CN(S(=O)(=O)c2ccc(C)cc2)C1` | -11.87 |
| `CCC(=O)N1CC2(C1)CN(Cc1cccc(Cl)c1)[C@@H](CO)c1c2c2ccc(OC)cc2n1C` | -18.85 |
| `O=C(C[C@H]1CC[C@H]2[C@@H](COC[C@@H](O)CN2Cc2ccc(Oc3ccccc3)cc2)O1)N1CCOCC1` | -17.6 |
| `COCC(=O)N1CC2(C1)CN(Cc1cc(F)ccc1F)[C@@H](CO)c1[nH]c3cc(OC)ccc3c12` | -50.85 |
| `O=C(C[C@@H]1CC[C@@H]2[C@H](COC[C@@H](O)CN2Cc2ccc(C(F)(F)F)cc2)O1)N1CCc2ccccc2C1` | -4.533 |
| `C[C@H](CO)N1C[C@H](C)[C@@H](CN(C)Cc2ccc(C(=O)Nc3ccccc3N)cc2)OCc2cn(nn2)CCCC1=O` | 2.476 |
| `CS(=O)(=O)N1CC(=O)N2[C@H](C1)[C@@H](c1ccc(C#Cc3ccccc3)cc1)[C@@H]2CO` | -29.45 |
| `COc1ccc2c3c([nH]c2c1)[C@H](CO)N(Cc1cccc(Cl)c1)CC31CCN(C)CC1` | -17.78 |
| `COc1ccc(S(=O)(=O)N2CC[C@@H]3[C@H](CO)Nc4ccc(-c5ccccc5F)cc4[C@@H]32)cc1` | -16.54 |
| `COc1ccccc1S(=O)(=O)N1CC[C@@H]2[C@@H](CO)Nc3ccc(-c4ccc(F)cc4)cc3[C@@H]21` | -70.67 |
| `C[C@H](CO)N1C[C@H](C)[C@@H](CN(C)S(=O)(=O)c2ccc(C#N)cc2)OCc2ccccc2-c2c(n(C)c3ccccc23)C1=O` | -48.06 |
| `COc1cccc(S(=O)(=O)N2CCCCN3[C@H](CO)[C@@H](c4ccc(C#CCC(C)C)cc4)[C@@H]3C2)c1` | -4.185 |
| `CN(C)CC(=O)N1C[C@@H]2N[C@H](C1)C2c1ccc(-c2ccccc2F)cc1` (stereo partly specified) | -11.01 |
| `COc1ccc(C#Cc2ccc([C@@H]3[C@H](CO)N4CCCCN(S(=O)(=O)c5cn(C)cn5)C[C@@H]34)cc2)cc1` | -63.05 |
| `O=C(C[C@@H]1CC[C@@H]2[C@H](COC[C@@H](O)CN2Cc2ccc3c(c2)OCO3)O1)Nc1ccc(-c2ccccc2)cc1` | -23.29 |
| `C[C@H]1CN([C@@H](C)CO)C(=O)c2c(c3ccccc3n2C)-c2ccccc2CO[C@@H]1CN(C)S(=O)(=O)c1cccc(C#N)c1` | 3.899 |
| `O=C(C[C@H]1CC[C@H]2[C@@H](COC[C@H](O)CN2S(=O)(=O)c2cccc(Cl)c2)O1)Nc1ccc(-c2ccccc2)cc1` | -33.76 |
| `CC(C)CC#Cc1ccc([C@@H]2[C@H]3CN(C(=O)NC4CCCC4)CCCCN3[C@H]2CO)cc1` | -15.85 |
| `C/C=C/c1ccc([C@H]2[C@@H](CO)N3CCCCN(S(=O)(=O)c4ccc(OC)cc4)C[C@@H]23)cc1` | -42.01 |
| `OC[C@H]1Nc2ccc(C#Cc3ccccc3)cc2[C@@H]2[C@H]1CCN2Cc1nccs1` | 9.562 |

Repeated from the top, 3 entries:

SMILES	activity change (%)
O=C(C[C@@H]1C[C@H]2c3cc(NC(=O)Nc4ccc(C(F)(F)F)cc4)ccc3O[C@H]2[C@H](CO)O1)NCC1CC1	-5.885
COc1ccc2c3c(n(C)c2c1)[C@H](CO)N(C(=O)Nc1ccc(F)cc1)CC31CN(Cc2cccc(F)c2)C1	-51.46
COc1ccccc1NC(=O)N1CC(=O)N2[C@@H](CO)[C@@H](c3ccc(C#CC(C)C)cc3)[C@@H]2C1	-10.67